Measurements from PMC6008445.
These are yes or no findings as the source states them, for the method shown. Binding seen in cells or lysates may run through a third protein. Some binding calls cover weakened binding; strength is not graded here.

Amino acid sequences for entries named in this document (tags omitted). A change or cut given only in a name is not applied to a line headed by its entry. Chains listed by the source or under a name are the forms on record and can include a tag or linker. Residues count along the entry.
UniProt P35968, residues 20-1356: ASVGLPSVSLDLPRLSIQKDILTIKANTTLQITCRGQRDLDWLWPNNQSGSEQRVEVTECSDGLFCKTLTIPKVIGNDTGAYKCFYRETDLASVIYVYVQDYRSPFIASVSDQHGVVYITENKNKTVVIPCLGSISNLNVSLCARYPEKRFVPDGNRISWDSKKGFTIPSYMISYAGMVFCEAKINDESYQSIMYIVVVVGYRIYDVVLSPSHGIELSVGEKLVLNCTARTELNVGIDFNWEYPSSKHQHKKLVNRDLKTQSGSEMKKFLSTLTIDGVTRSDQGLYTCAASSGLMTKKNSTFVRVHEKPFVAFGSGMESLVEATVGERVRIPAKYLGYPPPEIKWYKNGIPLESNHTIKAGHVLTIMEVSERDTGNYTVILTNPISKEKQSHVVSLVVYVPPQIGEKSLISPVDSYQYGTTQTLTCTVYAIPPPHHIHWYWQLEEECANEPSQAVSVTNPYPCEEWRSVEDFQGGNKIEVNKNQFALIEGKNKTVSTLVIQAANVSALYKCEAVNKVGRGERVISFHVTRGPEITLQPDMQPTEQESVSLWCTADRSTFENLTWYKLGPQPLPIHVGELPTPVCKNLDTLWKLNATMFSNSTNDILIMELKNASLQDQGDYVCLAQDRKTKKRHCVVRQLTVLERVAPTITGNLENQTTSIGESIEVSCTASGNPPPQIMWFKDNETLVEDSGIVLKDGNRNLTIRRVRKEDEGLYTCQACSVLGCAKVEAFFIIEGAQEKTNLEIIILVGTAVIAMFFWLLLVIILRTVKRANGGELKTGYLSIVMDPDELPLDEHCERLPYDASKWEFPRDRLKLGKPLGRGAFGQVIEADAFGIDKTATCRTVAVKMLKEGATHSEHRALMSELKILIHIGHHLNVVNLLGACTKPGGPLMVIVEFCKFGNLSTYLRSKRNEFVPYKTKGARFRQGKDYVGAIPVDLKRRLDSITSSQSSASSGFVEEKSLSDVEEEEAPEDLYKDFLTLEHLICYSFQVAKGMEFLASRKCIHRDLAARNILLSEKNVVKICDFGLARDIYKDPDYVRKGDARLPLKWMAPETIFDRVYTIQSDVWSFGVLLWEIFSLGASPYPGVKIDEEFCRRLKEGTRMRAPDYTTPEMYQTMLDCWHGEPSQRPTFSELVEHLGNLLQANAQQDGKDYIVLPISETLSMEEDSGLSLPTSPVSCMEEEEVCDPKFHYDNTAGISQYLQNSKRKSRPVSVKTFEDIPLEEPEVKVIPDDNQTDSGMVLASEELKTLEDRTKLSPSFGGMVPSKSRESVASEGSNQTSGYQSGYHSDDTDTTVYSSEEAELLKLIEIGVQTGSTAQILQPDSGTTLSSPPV
sVEGFR1-i13 (P17948-2, form named): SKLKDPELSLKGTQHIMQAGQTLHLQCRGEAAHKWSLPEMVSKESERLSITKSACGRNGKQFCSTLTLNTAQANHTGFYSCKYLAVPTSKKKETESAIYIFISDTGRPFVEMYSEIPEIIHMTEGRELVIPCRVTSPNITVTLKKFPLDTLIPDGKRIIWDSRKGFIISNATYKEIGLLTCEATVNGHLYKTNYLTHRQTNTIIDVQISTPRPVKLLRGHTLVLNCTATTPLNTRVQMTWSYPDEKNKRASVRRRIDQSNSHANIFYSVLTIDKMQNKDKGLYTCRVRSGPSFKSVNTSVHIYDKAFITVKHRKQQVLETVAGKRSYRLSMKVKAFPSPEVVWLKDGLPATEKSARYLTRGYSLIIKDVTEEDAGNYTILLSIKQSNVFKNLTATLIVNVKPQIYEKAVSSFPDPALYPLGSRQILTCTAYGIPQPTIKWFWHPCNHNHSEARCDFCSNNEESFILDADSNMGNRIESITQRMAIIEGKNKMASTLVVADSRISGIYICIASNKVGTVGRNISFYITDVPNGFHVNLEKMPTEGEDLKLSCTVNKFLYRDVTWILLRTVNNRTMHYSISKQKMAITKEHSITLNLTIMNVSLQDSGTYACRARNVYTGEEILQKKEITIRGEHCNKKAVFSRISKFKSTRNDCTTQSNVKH

Tests used:
[1] = target: VEGFR2 (human (endogenous in MGH7 and H2170)) (UniProt P35968); assay: proximity ligation; Duolink In Situ kit on MGH7 cells treated with SU5416 (10 µM, 24 h); confocal microscopy; complexes seen at the plasma membrane and in the cytoplasm
[2] = target: VEGFR2 (human (endogenous in MGH7 and H2170)) (UniProt P35968); assay: co-IP; MGH7 cells, RIPA lysate (1 mg protein), VEGFR2 precipitated with anti-VEGFR2 (55B11) and protein A magnetic beads overnight at 4 °C, irrelevant rabbit IgG as control; western blot of the precipitates; cells untreated or treated with bevacizumab (10 µg/ml, 72 h), SU5416 (10 µM, 24 h), recombinant sVEGFR1 (1 ng/ml, 24 h), or sVEGFR1-i13 siRNA
[3] = target: VEGFR2 (human (endogenous in MGH7 and H2170)) (UniProt P35968); assay: co-IP; H2170 cells, RIPA lysate, VEGFR2 precipitated with anti-VEGFR2 (55B11) and protein A magnetic beads overnight at 4 °C; western blot of the precipitates; cells untreated or treated with bevacizumab (10 µg/ml, 72 h) or recombinant sVEGFR1

binding [1]: binds
binding [2]: binds
binding [3]: binds
Substance: sVEGFR1-i13 (from UniProt P17948-2 27-687)
